The list is a part of this screen's results and no random one: it gathers tests that were run many times, whatever their T/C, doses with no T/C, and many T/C values between a quarter and a half above the control. Further doses and runs are listed elsewhere. T/C: endpoint of the treated group in % of that of the vehicle group. Some doses have a count of surviving animals in place of a T/C: the source holds a T/C of zero for them, seemingly a mark for toxic or unscored doses. Some doses without a T/C left all or most animals alive at the check, yet need not have been tolerated: the source hardly ever lists a survival T/C far under the control, and the zero likely stands for such cases as well. Counts of survivors are from the toxicity check (mostly the fifth day) where no day follows; animals may have died later. Schedules are NCI's codes, read here as Q, the interval in days (D) or hours (H), X, the number of doses. Some entries were tested several times; their values stand side by side, smallest first. Some schedules carry Z or #; the key to these is not given. For survival time, the PubChem record calls one and a half times the control and up active, and a quarter to a half above the control has no call in these data; cut-offs in other NCI protocols can differ. Some T/C values carry the count of animals alive at the toxicity check (mostly the fifth day); where none is given, no animal had died by that day. Counts like (3×) stand for listed records that agree.
System: L1210 leukemia ip in BDF1 mice, survival T/C
Assay: NCI In Vivo Anticancer Drug Screen. Data for tumor model L1210 Leukemia (intraperitoneal) in B6D2F1 (BDF1) mice
Conditions: T/C endpoint: mean survival time, higher T/C = longer survival
[1] = dose: 25.0 mg/kg/injection, schedule: Q04DX003 (ip), vehicle: water
[2] = dose: 50.0 mg/kg/injection, schedule: Q04DX003 (ip), vehicle: water
[3] = dose: 300.0 mg/kg/injection, schedule: Q01DX001 (ip), vehicle: other
[4] = dose: 200.0 mg/kg/injection, schedule: Q01DX001 (ip), vehicle: saline with Tween-80
[5] = dose: 400.0 mg/kg/injection, schedule: Q01DX001 (ip), vehicle: saline with Tween-80
[6] = dose: 400.0 mg/kg/injection, schedule: Q04DX002 (ip), vehicle: Klucel (hydroxypropylcellulose) (HPC)
[7] = dose: 100.0 mg/kg/injection, schedule: Q01DX001 (ip), vehicle: saline
[8] = dose: 200.0 mg/kg/injection, schedule: Q01DX009 (ip), vehicle: saline
[9] = dose: 400.0 mg/kg/injection, schedule: Q01DX001 (ip), vehicle: saline
[10] = dose: 200.0 mg/kg/injection, schedule: Q01DX001 (ip), vehicle: saline
[11] = dose: 100.0 mg/kg/injection, schedule: Q04DX003 (ip), vehicle: saline
[12] = dose: 400.0 mg/kg/injection, schedule: Q04DX003 (ip), vehicle: saline
[13] = dose: 400.0 mg/kg/injection, schedule: Q01DX009 (ip), vehicle: Klucel (hydroxypropylcellulose) (HPC)
[14] = dose: 150.0 mg/kg/injection, schedule: Q04DX003 (ip), vehicle: saline

With O=C(CI)Nc1ccc(O)c2ccccc12 the T/C (dose: 12.5 mg/kg/injection, schedule: Q04DX003 (ip), vehicle: water) was 86, 96 [5 of 6 alive] (2×), 107 % of control, the survivor count (dose: 25.0 mg/kg/injection, schedule: Q01DX009 (ip), vehicle: water) was 2 of 6 and the T/C [1] was 88 % of control. The survivor count [1] was 4 of 6 and 6 of 6, the survivor count (dose: 50.0 mg/kg/injection, schedule: Q01DX009 (ip), vehicle: water) was 0 of 6 and the T/C [2] was 89 [5 of 6 alive], 94, 128 % of control. For the same compound, the survivor count [2] was 0 of 6, the survivor count (dose: 75.0 mg/kg/injection, schedule: Q01DX001 (ip), vehicle: other) was 1 of 6 and the survivor count (dose: 100.0 mg/kg/injection, schedule: Q04DX003 (ip), vehicle: water) was 0 of 6. The survivor count (dose: 150.0 mg/kg/injection, schedule: Q01DX001 (ip), vehicle: other) was 0 of 6, the survivor count (dose: 200.0 mg/kg/injection, schedule: Q04DX003 (ip), vehicle: water) was 1 of 6 and the survivor count [3] was 0 of 6. The survivor count (dose: 400.0 mg/kg/injection, schedule: Q04DX003 (ip), vehicle: water) was 0 of 6.
In the case of CCCCCC(=O)NC1CCCCC1, the survivor count (dose: 300.0 mg/kg/injection, schedule: Q01DX001 (ip), vehicle: saline) is reported as 2 of 6.
In the case of CCCCSCCN, the survivor count (dose: 300.0 mg/kg/injection, schedule: Q01DX009 (ip), vehicle: Klucel (hydroxypropylcellulose) (HPC)) is reported as 0 of 6.
O=[N+]([O-])c1ccc(N/N=C/c2ccc(N(CCO)CCO)cc2)c([N+](=O)[O-])c1 was tested, and the survivor count (dose: 100.0 mg/kg/injection, schedule: Q01DX001 (ip), vehicle: saline with Tween-80) was 5 of 6, the survivor count [4] was 6 of 6 and the survivor count [5] was 6 of 6.
With N#C/C(=C/c1ccc(Cl)cc1)C(=O)O the survivor count [6] was 0 of 3.
CCCCCCCCCCCCC1C(=O)NC(=S)NC1=O was tested, and the survivor count [3] was 0 of 6.
In the case of Cc1cc(N)nc2ccccc12, the survivor count (dose: 100.0 mg/kg/injection, schedule: Q04DX002 (ip), vehicle: saline with Tween-80) is reported as 0 of 3, the survivor count (dose: 200.0 mg/kg/injection, schedule: Q04DX002 (ip), vehicle: saline with Tween-80) is reported as 0 of 3 and the survivor count (dose: 400.0 mg/kg/injection, schedule: Q04DX002 (ip), vehicle: saline with Tween-80) is reported as 0 of 3.
c1ccc(Nc2c3ccccc3nc3ccccc23)cc1 was tested, and the survivor count (dose: 200.0 mg/kg/injection, schedule: Q04DX003 (ip), vehicle: other) was 6 of 6 and the survivor count (dose: 400.0 mg/kg/injection, schedule: Q04DX003 (ip), vehicle: other) was 3 of 6.
CC1CN1P1(N2CC2C)=NP(N2CC2C)(N2CC2C)=NP(N2CC2C)(N2CC2C)=N1 (configuration not stated) was tested, and the T/C [7] was 129 % of control, the T/C (dose: 115.0 mg/kg/injection, schedule: Q04DX003 (ip), vehicle: acetone) was 130 % of control and the survivor count [8] was 0 of 6. The survivor count [9] was 0 of 6.
For CNc1nc2c(N)ncnc2n1C1OC(CO)C(O)C1O (configuration not stated), the T/C (dose: 100.0 mg/kg/injection, schedule: Q04DX002 (ip), vehicle: saline) was 127 % of control [4 of 6 alive], the survivor count [10] was 0 of 4 and the survivor count (dose: 200.0 mg/kg/injection, schedule: Q04DX002 (ip), vehicle: saline) was 0 of 6. The survivor count (dose: 200.0 mg/kg/injection, schedule: Q04DX002 (ip), vehicle: suspension in saline) was 0 of 6 and the survivor count [9] was 0 of 4.
In the case of CC([NH-])CO.CC([NH-])CO.[Cu+2] (configuration not stated), the survivor count (dose: 50.0 mg/kg/injection, schedule: Q01DX001 (ip), vehicle: saline) is reported as 0 of 6, the survivor count [7] is reported as 1 of 6 and the survivor count [10] is reported as 0 of 6. The survivor count [9] was 1 of 6.
For CS/C(N)=N/N=C(\N)SC, the survivor count (dose: 100.0 mg/kg/injection, schedule: Q01DX009 (ip), vehicle: saline with Tween-80) was 2 of 6, the survivor count [4] was 2 of 6 and the survivor count [5] was 0 of 6.
NC(N)=N/N=C/c1ccccc1O was tested, and the survivor count (dose: 63.0 mg/kg/injection, schedule: Q01DX Z (ip), vehicle: saline) was 6 of 6 and the survivor count (dose: 125.0 mg/kg/injection, schedule: Q01DX Z (ip), vehicle: saline) was 6 of 6.
For Cc1nccn1C(C)c1ccccc1 (configuration not stated), the survivor count [11] was 0 of 6, the survivor count (dose: 200.0 mg/kg/injection, schedule: Q04DX003 (ip), vehicle: saline) was 0 of 6 and the survivor count [12] was 0 of 6.
For CC1([N+](=O)[O-])COP(=O)(N2CC2)OC1 (configuration not stated), the survivor count (dose: 250.0 mg/kg/injection, schedule: Q01DX Z (ip), vehicle: carboxymethylcellulose (CMC)) was 3 of 6 and the survivor count (dose: 500.0 mg/kg/injection, schedule: Q01DX Z (ip), vehicle: carboxymethylcellulose (CMC)) was 0 of 6.
With COC(=O)c1ccc(OC(=O)Nc2ccc(F)c([N+](=O)[O-])c2)cc1 the survivor count [13] was 3 of 6.
For O=C(NC(CSCc1ccccc1)C(=O)Oc1ccc([N+](=O)[O-])cc1)OCc1ccccc1 (configuration not stated), the survivor count (dose: 100.0 mg/kg/injection, schedule: Q04DX003 (ip), vehicle: gum acacia) was 6 of 6, the survivor count (dose: 200.0 mg/kg/injection, schedule: Q04DX003 (ip), vehicle: gum acacia) was 6 of 6 and the survivor count (dose: 400.0 mg/kg/injection, schedule: Q04DX003 (ip), vehicle: gum acacia) was 6 of 6.
CC(C)(CS(C)(=O)=O)C(=O)O was tested, and the survivor count [8] was 6 of 6.
CCCCOP(=O)(OCCCC)OC(C#N)CCC (configuration not stated) was tested, and the survivor count [6] was 3 of 3.
CN(C)c1ccc(C(N)=O)cn1 was tested, and the survivor count (dose: 33.0 mg/kg/injection, schedule: Q01DX009 (ip), vehicle: saline with Tween-80) was 5 of 6, the survivor count (dose: 66.0 mg/kg/injection, schedule: Q01DX009 (ip), vehicle: saline with Tween-80) was 6 of 6 and the T/C (dose: 66.0 mg/kg/injection, schedule: Q04DX003 (ip), vehicle: saline) was 127 % of control. The survivor count [11] was 6 of 6, the T/C [14] was 125 % of control and the survivor count [14] was 6 of 6. The survivor count [12] was 6 of 6.
Nc1nc(N)c(N=O)c(Nc2ccc(Cl)c(Cl)c2)n1 was tested, and the survivor count (dose: 50.0 mg/kg/injection, schedule: Q01DX Z (ip), vehicle: carboxymethylcellulose (CMC)) was 6 of 6 and the survivor count (dose: 200.0 mg/kg/injection, schedule: Q01DX Z (ip), vehicle: carboxymethylcellulose (CMC)) was 6 of 6.
For O=c1cc(CBr)c2ccccc2[nH]1, the survivor count (dose: 25.0 mg/kg/injection, schedule: Q01DX009 (ip), vehicle: saline with Tween-80) was 4 of 6, the survivor count [7] was 2 of 6 and the survivor count [10] was 0 of 6. The survivor count [9] was 0 of 6.
For O=C(O)c1ccc(OCC(=O)c2ccccc2)cc1, the survivor count (dose: 400.0 mg/kg/injection, schedule: Q01DX009 (ip), vehicle: saline with Tween-80) was 2 of 6.
In the case of CC(=O)OC1CC(OC2C(O)CC(OC3C(O)CC(OC4CCC5(C)C(CCC6C5CCC5(C)C(C7=CC(=O)OC7)C(O)CC65O)C4)OC3C)OC2C)OC(C)C1OC1OC(CO)C(O)C(O)C1O (configuration not stated), the survivor count (dose: 100.0 mg/kg/injection, schedule: Q01DX001 (ip), vehicle: carboxymethylcellulose (CMC)) is reported as 1 of 6.
In the case of Cc1c(C)c(O)c2c(c1C)C(C)C(=O)OC2=O (configuration not stated), the survivor count (dose: 80.0 mg/kg/injection, schedule: Q01DX001 (ip), vehicle: saline) is reported as 0 of 6.
With Cc1ccc(NC(=O)COc2ccc(Cl)cc2)c(C)c1 the survivor count [13] was 6 of 6.
CCCCN1CC1(C)C (configuration not stated) was tested, and the survivor count [10] was 0 of 6 and the survivor count [9] was 0 of 6.
For CC(C)=CC[P+](C)(c1ccccc1)c1ccccc1, the survivor count (dose: 25.0 mg/kg/injection, schedule: Q04DX003 (ip), vehicle: saline) was 0 of 3, the survivor count (dose: 50.0 mg/kg/injection, schedule: Q04DX003 (ip), vehicle: saline) was 0 of 3 and the survivor count [11] was 0 of 3.
With O=[N+]([O-])c1ccc(/C=N\Nc2ccccn2)s1 the survivor count (dose: 400.0 mg/kg/injection, schedule: Q04DX003 (ip), vehicle: saline with Tween-80) was 3 of 6.

— PubChem BioAssay AID248 (DTP/NCI, 2004)
